± gives the standard deviation of the averaged measurements. The list shows a part of the results.
Biological target: T1, MFN2 (UniProt O95140)
T1 sequence (whole entry): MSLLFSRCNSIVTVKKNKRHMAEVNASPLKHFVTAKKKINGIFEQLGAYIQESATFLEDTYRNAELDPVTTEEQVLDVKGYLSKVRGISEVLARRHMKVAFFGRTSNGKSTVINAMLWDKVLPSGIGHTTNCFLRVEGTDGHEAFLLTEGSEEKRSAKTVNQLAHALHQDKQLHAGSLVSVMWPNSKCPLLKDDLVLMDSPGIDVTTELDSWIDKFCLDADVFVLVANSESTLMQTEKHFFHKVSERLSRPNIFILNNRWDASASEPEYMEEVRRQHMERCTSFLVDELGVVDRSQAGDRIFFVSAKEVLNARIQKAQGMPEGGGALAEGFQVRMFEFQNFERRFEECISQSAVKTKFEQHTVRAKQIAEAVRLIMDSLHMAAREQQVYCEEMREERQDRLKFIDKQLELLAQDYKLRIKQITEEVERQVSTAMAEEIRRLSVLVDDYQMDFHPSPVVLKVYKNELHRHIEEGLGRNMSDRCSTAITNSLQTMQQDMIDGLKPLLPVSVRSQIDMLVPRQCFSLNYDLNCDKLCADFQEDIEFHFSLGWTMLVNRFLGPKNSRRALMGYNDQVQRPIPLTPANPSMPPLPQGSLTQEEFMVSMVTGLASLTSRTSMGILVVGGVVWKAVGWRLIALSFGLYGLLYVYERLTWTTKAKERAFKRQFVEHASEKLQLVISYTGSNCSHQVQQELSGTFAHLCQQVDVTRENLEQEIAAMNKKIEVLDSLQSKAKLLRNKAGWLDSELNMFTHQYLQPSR
Assay: NP40-soluble protein abundance relative to vehicle (solubility fold change) (ratio); higher = more soluble protein in presence of GTP
Method: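 Solubility proteome profiling in Jurkat crude lysate. Lysate was treated with Mg-GTP (0.1-10 mM) for 10 min at room temperature and 3 min at 37 °C, then solubilised with 0.8% NP40 and benzonase, followed by ultracentrifugation. Proteins were quantified by TMT10 LC-MS/MS; the value is the NP40-soluble abundance relative to the NP40-processed vehicle, from 3 independent experiments.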

Question: Which results are given for Nc1nc2c(ncn2[C@@H]2O[C@H](COP(=O)(O)OP(=O)(O)OP(=O)(O)O)[C@@H](O)[C@H]2O)c(=O)[nH]1 [guanosine triphosphate]?
Answer: NP40-soluble protein abundance (concentration: 0.1mM): 0.993 ± 0.1; NP40-soluble protein abundance (concentration: 0.5mM): 0.98 ± 0.15; NP40-soluble protein abundance (concentration: 1mM): 0.868 ± 0.11; NP40-soluble protein abundance (concentration: 2mM): 0.976 ± 0.13; NP40-soluble protein abundance (concentration: 4mM): 0.982 ± 0.1; NP40-soluble protein abundance (concentration: 6mM): 0.941 ± 0.08; NP40-soluble protein abundance (concentration: 8mM): 0.905 ± 0.17; NP40-soluble protein abundance (concentration: 10mM): 0.928 ± 0.082
